From article PMC6258472
Results are given in words; binding and its absence hold for the method and conditions named. In cells and extracts the contact can be indirect. Some entries that bind do so weakly or less than the wild type. Tags and fused reporters may be left off the sequences shown.

Biological target: T1, α-1,4-galactosyltransferase (A4GALT) with an N-terminal triple FLAG tag (human) (UniProt Q9NPC4)
T1 sequence: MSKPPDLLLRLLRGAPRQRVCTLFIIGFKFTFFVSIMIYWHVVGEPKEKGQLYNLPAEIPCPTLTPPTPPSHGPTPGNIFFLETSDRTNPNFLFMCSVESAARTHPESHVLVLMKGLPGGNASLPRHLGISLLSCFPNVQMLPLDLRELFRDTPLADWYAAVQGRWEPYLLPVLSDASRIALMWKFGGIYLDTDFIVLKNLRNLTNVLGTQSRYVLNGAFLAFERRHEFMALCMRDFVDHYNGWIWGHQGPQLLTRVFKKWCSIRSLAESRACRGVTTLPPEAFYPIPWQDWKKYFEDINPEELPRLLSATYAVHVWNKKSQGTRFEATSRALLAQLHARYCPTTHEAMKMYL
Experiment: co-IP

binding: binds
B1: lysosomal-associated protein transmembrane 4 beta (LAPTM4B) with a C-terminal triple HA tag (protein, UniProt Q86VI4-2 1-226)
chain: MKMVAPWTRFYSNSCCLCCHVRTGTILLGVWYLIINAVVLLILLSALADPDQYNFSSSELGGDFEFMDDANMCIAIAISLLMILICAMATYGAYKQRAAWIIPFFCYQIFDFALNMLVAITVLIYPNSIQEYIRQLPPNFPYRDDVMSVNPTCLVLIILLFISIILTFKGYLISCVWNCYRYINGRNSSDVLVYVTSNDTTVLLPPYDDATVNGAAKEPPPPYVSA
